Paper PMC11643744, “New Conjugates of Vancomycin with Cell-Penetrating Peptides—Synthesis, Antimicrobial Activity, Cytotoxicity, and BBB Permeability Studies” (Molecules, 2024)

Conditions: PAMPA, pH 7.4
From the text: This assay utilized a 96-well plate assembly consisting of a filter plate pre-coated with polar brain lipids (donor plate) and a receiver plate (acceptor plate). The phospholipid mixture used to coat the membrane was extracted from porcine polar brain lipids, with the following composition: 12.6% phosphatidylcholine, 33.1% phosphatidylethanolamine, 18.5% phosphatidylserine, 4.1% phosphatidylinositol, 0.8% phosphatidic acid, and 30.9% of other compounds, including cerebrosides, sulfatides, and pigments.
In each well of the donor filtration plate (Multiscreen Filter Plate, PVDF with a pore size of 0.45 µm), 5 µL of the phospholipid mixture in n-dodecane (20 mg/mL) was carefully applied to form the artificial membrane. After coating, 200 µL of phosphate-buffered saline (PBS at pH 7.4) containing 5% dimethyl sulfoxide (DMSO) as a co-solvent, and the test compound (at a concentration of 20 µM) was added to each well of the donor plate (in triplicate). […] The plate lid was then replaced and the resulting assembled donor–acceptor plates were incubated at room temperature for 20 h. […] The concentrations of the tested compounds were determined by LC-MS. […] The eluted solution was monitored by an ESI-MS detector operated in a selected ion monitoring mode (SIM). […]

Compound: CN1C(=O)CN=C(c2ccccc2)c2cc(Cl)ccc21 [Diazepam, reference compound]
- R, mass retention: 61.7 ± 6.4%
